The list shows only some results of the screen, not a fair sample: it gathers tests that were run many times, whatever their T/C, doses with no T/C, and many T/C values between a quarter and a half above the control. Further doses and runs are listed elsewhere. T/C: endpoint of the treated group in % of that of the vehicle group. Some doses have a count of surviving animals in place of a T/C: the source holds a T/C of zero for them, seemingly a mark for toxic or unscored doses. Some survivor counts are full or nearly so, which does not show that the dose was tolerated: the source hardly ever lists a survival T/C far under the control, and the zero likely stands for such cases as well. Survivors were counted at the toxicity check, usually on the fifth day, unless a day is given; later deaths do not show. Schedules are NCI's codes, taken here to give the interval after Q, in days (D) or hours (H), and the number of doses after X. Some structures stand for samples that the source files as different forms (salt, stereo form or complex); doses refer to the form tested. Some entries were tested several times; the values are given in rising order. Where survival is the endpoint, this PubChem deposit counts one and a half times the control or more as active, and values a quarter to a half above the control carry no call in these data; other NCI protocols may use other cut-offs. Some schedule codes hold Z or #, which are not explained here.
Tested on: BDF1 mice, intracerebral L1210 leukemia, survival T/C
Assay: NCI In Vivo Anticancer Drug Screen. Data for tumor model L1210 Leukemia (intracerebral) in B6D2F1 (BDF1) mice
Details: T/C endpoint: mean survival time, higher T/C = longer survival
How it was run: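 Survival measured in treated and vehicle-control tumour-bearing mice; value = T/C.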

[1] = dose: 13.0 mg/kg/injection, schedule: Q01DX001 (ip), vehicle: carboxymethylcellulose (CMC)

With O=NN(CCF)C(=O)NC1CCCCC1 the T/C [1] was 132 % of control, the T/C (dose: 20.0 mg/kg/injection, schedule: Q01DX001 (ip), vehicle: carboxymethylcellulose (CMC)) was 145 % of control and the survivor count (dose: 54.0 mg/kg/injection, schedule: Q01DX001 (oral), vehicle: other) was 5 of 10.
For O=NN(CCCl)C(=O)Nc1cccc(C(=O)O)c1, the survivor count (dose: 27.0 mg/kg/injection, schedule: Q01DX001 (ip), vehicle: carboxymethylcellulose (CMC)) was 6 of 6.
For CN(Cc1cnc2nc(N[Si](C)(C)C)nc(N[Si](C)(C)C)c2n1)c1ccc(C(=O)NC(CCC(=O)O[Si](C)(C)C)C(=O)O[Si](C)(C)C)cc1 (stereo not given), the T/C (dose: 1.0 mg/kg/injection, schedule: Q01DX009 (ip), vehicle: saline) was 148 % of control, the T/C (dose: 2.0 mg/kg/injection, schedule: Q01DX009 (ip), vehicle: Klucel (hydroxypropylcellulose) (HPC)) was 131 % of control and the survivor count (dose: 8.0 mg/kg/injection, schedule: Q01DX009 (ip), vehicle: Klucel (hydroxypropylcellulose) (HPC)) was 4 of 6. For the same molecule, the survivor count (dose: 8.0 mg/kg/injection, schedule: Q01DX009 (ip), vehicle: saline) was 6 of 6 and the survivor count (dose: 16.0 mg/kg/injection, schedule: Q01DX009 (ip), vehicle: Klucel (hydroxypropylcellulose) (HPC)) was 4 of 6.
COc1cc(NS(C)(=O)=O)ccc1Nc1c2ccccc2nc2c(C)cccc12 was tested, and the survivor count (dose: 5.0 mg/kg/injection, schedule: Q01DX009 (ip), vehicle: water) was 7 of 10, the survivor count (dose: 10.0 mg/kg/injection, schedule: Q01DX009 (ip), vehicle: water) was 9 of 10 and 10 of 10 and the survivor count (dose: 10.0 mg/kg/injection, schedule: Q01DX009 (sc), vehicle: water) was 9 of 10. The survivor count (dose: 20.0 mg/kg/injection, schedule: Q01DX009 (ip), vehicle: water) was 7 of 10 and 10 of 10 and the survivor count (dose: 20.0 mg/kg/injection, schedule: Q01DX009 (sc), vehicle: water) was 6 of 10 and 8 of 10.
In the case of CC(=O)NC1=C(N2CC2C)C(=O)C(NC(C)=O)=C(N2CC2C)C1=O (stereo not given), the survivor count (dose: 20.0 mg/kg/injection, schedule: Q01DX009 (ip), vehicle: saline) is reported as 5 of 6, the survivor count (dose: 40.0 mg/kg/injection, schedule: Q01DX009 (ip), vehicle: saline with Tween-80) is reported as 6 of 6 and the survivor count (dose: 40.0 mg/kg/injection, schedule: Q01DX009 (ip), vehicle: saline) is reported as 2 of 6.
In the case of C[n+]1ccc(Nc2ccc(NC(=O)c3ccc(Nc4cc[n+](C)c5ccc(N)cc45)cc3N)cc2)cc1, the survivor count (dose: 16.0 mg/kg/injection, schedule: Q01DX009 (ip), vehicle: water) is reported as 6 of 10.
For O=NN(CCCl)C(=O)N[C@H]1CCCC[C@@H]1Cl, the T/C [1] was 131 % of control, the T/C (dose: 19.0 mg/kg/injection, schedule: Q01DX001 (ip), vehicle: carboxymethylcellulose (CMC)) was 126 % of control and the T/C (dose: 61.0 mg/kg/injection, schedule: Q01DX001 (ip), vehicle: other) was 149 % of control. The survivor count (dose: 91.5 mg/kg/injection, schedule: Q01DX001 (ip), vehicle: carboxymethylcellulose (CMC)) was 6 of 10.
For O=C1N[C@@H]([C@H]2CC[C@H](Cl)CN2)C(=O)N[C@H]1[C@H]1CC[C@H](Cl)CN1, the T/C (dose: 2.0 mg/kg/injection, schedule: Q01DX009 (ip), vehicle: saline) was 140 % of control and the survivor count (dose: 16.0 mg/kg/injection, schedule: Q01DX001 (ip), vehicle: saline) was 3 of 10.
With C=CC(CN1CC1)OC(C)=O (stereo not given) the T/C (dose: 3.75 mg/kg/injection, schedule: Q01DX Z (ip), vehicle: saline) was 139 % of control, the T/C (dose: 7.5 mg/kg/injection, schedule: Q01DX Z (ip), vehicle: saline) was 133 % of control and the T/C (dose: 16.75 mg/kg/injection, schedule: Q01DX001 (ip), vehicle: saline) was 129 % of control. The T/C (dose: 20.0 mg/kg/injection, schedule: Q01DX Z (ip), vehicle: saline) was 125 % of control and the T/C (dose: 25.0 mg/kg/injection, schedule: Q01DX001 (ip), vehicle: saline) was 135 % of control.
With COc1cc([C@@H]2c3cc4c(cc3[C@@H](OC3OC5COC(C)OC5C(O)C3O)[C@H]3COC(=O)[C@H]23)OCO4)cc(OC)c1O (stereo not given in full) the T/C (dose: 8.0 mg/kg/injection, schedule: Q01DX009 (oral), vehicle: Klucel (hydroxypropylcellulose) (HPC)) was 127 % of control.

— PubChem BioAssay AID252 (DTP/NCI, 2004)
